Test results published in article PMC7819943, “Rice protein-binding microarrays: a tool to detect cis-acting elements near promoter regions in rice”.
The list shows a part of the results.

Chains of the proteins cited; added tags and fusions are not shown.
UniProt Q0JBA9, entry or part of it: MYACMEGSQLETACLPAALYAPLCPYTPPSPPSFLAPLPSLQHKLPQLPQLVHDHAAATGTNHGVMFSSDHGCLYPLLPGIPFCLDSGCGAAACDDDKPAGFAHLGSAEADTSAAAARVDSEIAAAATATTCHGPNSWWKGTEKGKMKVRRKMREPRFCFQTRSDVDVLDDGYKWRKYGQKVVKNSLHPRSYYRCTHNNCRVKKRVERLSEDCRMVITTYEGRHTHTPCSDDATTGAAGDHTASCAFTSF

biological target: OsWRKY34 (Oryza sativa, UniProt Q0JBA9 1-250); assay: protein-binding microarray (RPBM); PBS, 2% BSA, 51.3 ng/ul salmon testes DNA, 50 uM zinc acetate, 200 nM TF, 25 C, 1 h; high values mean tight binding; details: protein: recombinant; tags: N-terminal polyhistidine and DsRed monomer fusion (pET32a); label: CyDye5-dUTP incorporated in the synthesized complementary strand; 3' TTTTT single-stranded linker to array surface; dsDNA, one strand shown
Method in brief: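 Using Ni–NTA, transcription factors fused N-terminally to polyhistidine and DsRed were purified after expression in E. coli BL21-CodonPlus. These were incubated at 200 nM with a blocked, double-stranded custom Agilent array for 1 h at 25 °C in a buffer containing 50 µM zinc acetate, and the array was washed. The binding signal is per-feature fluorescence intensity (arbitrary units) on an Axon 4000B scanner.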

Compared with “TGTTTTGTTATTAGTCTATGTTTAATACTTTAAATGTGTACGGAGTCACCTAGTGCAG”, “ATCTGTAATTTGTTTTGTTAATTTGTTTTGTTATTAGTCTCGGAGTCACCTAGTGCAG” is higher in binding signal: 8050 fluorescence intensity (a.u.) for the first, 9850 fluorescence intensity (a.u.) for the second.

First: ACTTTCTTGGCCTCTCTCCTGTCTCTACCTCTCCCTTTCTCGGAGTCACCTAGTGCAG
Second: CGTTATTCCGCTGTTGTTTTTTTTTTCTTTTGTAAGTATGCGGAGTCACCTAGTGCAG
The binding signal of the first is lower: 8260 fluorescence intensity (a.u.) for the first, 17500 fluorescence intensity (a.u.) for the second.

Going from “GGTTGGTAATGAGATGGCTTTTCCTACTTGTTGTATACATCGGAGTCACCTAGTGCAG” to “CGCCTTCGGCCACCAACACCGGCGTGGGAGGGAGGGCATGCGGAGTCACCTAGTGCAG”, the binding signal falls from 12000 fluorescence intensity (a.u.) to 11700 fluorescence intensity (a.u.).

Going from “CCGAGCGCCGCCTCTCCTTGTCAAGCCGCCGCGCGCTGCCCGGAGTCACCTAGTGCAG” to “ATCTGGCTTAACCACGCCCGGCTCTTCCCCTCCATCCAACCGGAGTCACCTAGTGCAG”, the binding signal falls from 9870 fluorescence intensity (a.u.) to 8040 fluorescence intensity (a.u.).

Compared with “ATACCTAACTCTGCCATTTCCACAGTGTGCTGCCTGTAATCGGAGTCACCTAGTGCAG”, “CACTCCAAAACCCCTTCTCTCTCTTTTCCGTTTTCTTTTCCGGAGTCACCTAGTGCAG” is lower in binding signal: 12300 fluorescence intensity (a.u.) for the first, 9490 fluorescence intensity (a.u.) for the second.

Compared with “AGCTCGAGTGGACGTTCACCCGTTTATTGTATGTTATCTACGGAGTCACCTAGTGCAG”, “TTCTTTCTTTTTTGGCGGGGACTACTCTTTACTTGAACCTCGGAGTCACCTAGTGCAG” is higher in binding signal: 8700 fluorescence intensity (a.u.) for the first, 12400 fluorescence intensity (a.u.) for the second.

Going from “ACATTCCCATTTTGCGTTTTCAGATCTCATTTTTTTTCCCCGGAGTCACCTAGTGCAG” to “CCTGTATTCAATTGCAACCATTCATCTATCATACTCTCTCCGGAGTCACCTAGTGCAG”, the binding signal falls from 12000 fluorescence intensity (a.u.) to 8450 fluorescence intensity (a.u.).

Going from “CACCGCCCTTGGCTCGCCCCGCCGCTCGTCCACCACCACGCGGAGTCACCTAGTGCAG” to “GATGAGGAGTGTGGGATGAGGAGAAATGGCTGGGGTTCATCGGAGTCACCTAGTGCAG”, the binding signal falls from 10700 fluorescence intensity (a.u.) to 9170 fluorescence intensity (a.u.).

Going from “CTTGCAATGTATGCTCACATATTTCTTATTAGTTGTTTCCCGGAGTCACCTAGTGCAG” to “AGTTAAATGTAGCCAAATTCGCCGGCTTCTCCATTGTCTCCGGAGTCACCTAGTGCAG”, the binding signal falls from 8870 fluorescence intensity (a.u.) to 8360 fluorescence intensity (a.u.).

First: CGATCTGCTTTTCTTTTTCTTTCCCTGCGCTCTCCTTTTTCGGAGTCACCTAGTGCAG
Second: AAATGACAAGCCAATTTGTTCTCCTTTGTTTGCTCTGACCCGGAGTCACCTAGTGCAG
The binding signal of the first is higher: 9890 fluorescence intensity (a.u.) for the first, 8370 fluorescence intensity (a.u.) for the second.

First: CCCAGGAAACCCTATCTTTTTTCCTCCCTTTAAACTTAACCGGAGTCACCTAGTGCAG
Second: CCCCGCTCCCGCGCGTCGCCGAGCGTTTCACGTTCACAACCGGAGTCACCTAGTGCAG
The binding signal of the first is lower: 9030 fluorescence intensity (a.u.) for the first, 10300 fluorescence intensity (a.u.) for the second.

Compared with “CCCGGCTAACCTCGCCCTCACTCACTCCACTACTACTTTTCGGAGTCACCTAGTGCAG”, “ACATGGCCCCACCCTTTTTATTATTTTGTGTGTAATTGACCGGAGTCACCTAGTGCAG” is lower in binding signal: 10100 fluorescence intensity (a.u.) for the first, 9990 fluorescence intensity (a.u.) for the second.

Compared with “CATATATTTACCTGCGCAAACAAACACTTGACACCAAAATCGGAGTCACCTAGTGCAG”, “TTGACACAGCGTTTACACCCGTGGCCATTCATGTTCTGCTCGGAGTCACCTAGTGCAG” is higher in binding signal: 8090 fluorescence intensity (a.u.) for the first, 8130 fluorescence intensity (a.u.) for the second.

Going from “CCGTTCCCGCGCACATTTTTTCGGCATCCCACCCGCCGATCGGAGTCACCTAGTGCAG” to “GACCACAACACGCGACGCCACGCCTCCTCCCGATCCGCTCCGGAGTCACCTAGTGCAG”, the binding signal falls from 9770 fluorescence intensity (a.u.) to 8320 fluorescence intensity (a.u.).

First: TCTTTGTGTTTTTTTTTCCTCTCCTTTTCTTGAGGAATTTCGGAGTCACCTAGTGCAG
Second: CGATCAATCTCTCTTTATTTATTTGCAGATCGATCAACCTCGGAGTCACCTAGTGCAG
The binding signal of the first is higher: 9700 fluorescence intensity (a.u.) for the first, 8310 fluorescence intensity (a.u.) for the second.

Compared with “CAGTTCTGGTGCTCCTCCATCTCCGCCGCCGACGACCTCGCGGAGTCACCTAGTGCAG”, “GAGGTGGTGGGTTTCCCACGTGTGTTCCTTTAGTTCTCTTCGGAGTCACCTAGTGCAG” is higher in binding signal: 8140 fluorescence intensity (a.u.) for the first, 12700 fluorescence intensity (a.u.) for the second.

First: CCACTTGTATTGCTACTTGCTGTTAGACTATGCCATCAATCGGAGTCACCTAGTGCAG
Second: CACCACCACCACTACCACCTCTGCTTTTTCTACCCTCGATCGGAGTCACCTAGTGCAG
The binding signal of the first is higher: 11700 fluorescence intensity (a.u.) for the first, 10800 fluorescence intensity (a.u.) for the second.

Compared with “GCTTCCCGTCGACGTGCTTCGCCTCCAGCGACTGGAGCTCCGGAGTCACCTAGTGCAG”, “CACATTAGACCTTTCGTCTTGTTTGTTCGTAATAAGCTTTCGGAGTCACCTAGTGCAG” is higher in binding signal: 8360 fluorescence intensity (a.u.) for the first, 10100 fluorescence intensity (a.u.) for the second.

Compared with “GGTAGCGTCGTTGACGTTCCACTTTGACCTGTTGTATCTCCGGAGTCACCTAGTGCAG”, “ATTCCAGGAAATATCAGGGTTTTCTGTCGTTGCCGCCCATCGGAGTCACCTAGTGCAG” is lower in binding signal: 8750 fluorescence intensity (a.u.) for the first, 8200 fluorescence intensity (a.u.) for the second.

First: CTCCTCTCTTGTCGCCCACACCGGTTGCCGAGCTCTCCTTCGGAGTCACCTAGTGCAG
Second: TGTGTTGCTGTTCTATTTCCAGGTGTGATTATTGTTCTGTCGGAGTCACCTAGTGCAG
The binding signal of the first is lower: 10300 fluorescence intensity (a.u.) for the first, 10500 fluorescence intensity (a.u.) for the second.

First: AGGTTCTTGTTGCTGTTGCTGTTCATCATTATCATAGCCACGGAGTCACCTAGTGCAG
Second: GCCTTTTTACGACTTTTTTTTCTTTGTGTCAAATCGGACTCGGAGTCACCTAGTGCAG
The binding signal of the first is higher: 10500 fluorescence intensity (a.u.) for the first, 9490 fluorescence intensity (a.u.) for the second.
